Taken from: PubChem BioAssay AID743121 (NCATS, 2013)
Here is an unselected part of about 26,000 reagents tested. 167 of them (0.63%) were called active. 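Calls are per gene from RSA p-values that are not deposited; an individual active-marked siRNA can sensitise only weakly.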 Unmarked entries are inactive. The numbers tell different reagents against one gene apart. Further read-outs or replicates are left out here. No sequences are given here.

Purpose: 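Knock-downs that sensitise breast cancer cells to camptothecin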 (primary screen)
System: MDA-MB-231 cells, a human breast cancer line
Knock-down reagent: single siRNA against human genes, 20 nM siRNA (0.8 pmol per well)
Timing: 120 h (drug added 48 h after transfection, read 72 h later)
Conditions: camptothecin 20 nM (about EC30) for 72 h; vehicle 0.1% DMSO in parallel plates
Measured: 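Cell viability by ATP luminescence (CellTiter-Glo) as % of non-targeting siRNA wells, and the log2 ratio of viability without drug over viability with camptothecin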
Reading the numbers: log2 vehicle/camptothecin viability: higher = stronger sensitisation to camptothecin
Rule for the call: 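Active genes have an RSA gene-level p-value below 0.001, computed from the ratios of their separate siRNAs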

With knock-down of RIOK3 #1, the record shows log2 vehicle/camptothecin viability -0.535.
For RIOK3 #2 the deposit lists log2 vehicle/camptothecin viability -0.299.
Against RIOK3 #3 the deposit lists log2 vehicle/camptothecin viability -0.324.
After knock-down of RIOK3 #4, the record shows log2 vehicle/camptothecin viability -0.193.
Knock-down of TPH2 #1 resulted in: log2 vehicle/camptothecin viability -0.244.
After knock-down of TPH2 #2, the record shows log2 vehicle/camptothecin viability -0.133.
Knock-down of TPH2 #3 gave: log2 vehicle/camptothecin viability -0.454.
TPH2 #4 showed log2 vehicle/camptothecin viability 0.0525.
Depletion of FNDC3B #1 gave: log2 vehicle/camptothecin viability 0.4.
For FNDC3B #2 the deposit lists log2 vehicle/camptothecin viability -0.0803.
After knock-down of FNDC3B #3 the results were log2 vehicle/camptothecin viability -0.196.
After knock-down of TAL2 #1, the screen gave log2 vehicle/camptothecin viability 0.0707.
Against TAL2 #2, the entry reads log2 vehicle/camptothecin viability -0.335.
After knock-down of TAL2 #3 the results were log2 vehicle/camptothecin viability -0.102.
Knock-down of TFDP1 #1 gave: log2 vehicle/camptothecin viability 0.043.
For TFDP1 #2 the deposit lists log2 vehicle/camptothecin viability 0.0663.
Against TFDP1 #3, the values are log2 vehicle/camptothecin viability 0.0728.
Against MED19 #1, the entry reads log2 vehicle/camptothecin viability 0.112.
For MED19 #2, the values are log2 vehicle/camptothecin viability -0.109.
Knock-down of MED19 #3 gave: log2 vehicle/camptothecin viability 0.449.
Knock-down of MED19 #4 resulted in: log2 vehicle/camptothecin viability 0.336.

Not a retest: entries from further up.
TFDP1 #3 | log2 vehicle/camptothecin viability = 0.0728
MED19 #1 | log2 vehicle/camptothecin viability = 0.112
MED19 #2 | log2 vehicle/camptothecin viability = -0.109

The list goes on.
Depletion of DGUOK #1 came out at: log2 vehicle/camptothecin viability -0.313.
Knock-down of DGUOK #2 came out at: log2 vehicle/camptothecin viability -0.26.
Against DGUOK #3 the deposit lists log2 vehicle/camptothecin viability 0.674.
For DGUOK #4, the values are log2 vehicle/camptothecin viability 0.137.
With knock-down of TCP11L2 #1, the screen gave log2 vehicle/camptothecin viability -0.104.
For TCP11L2 #2, the entry reads log2 vehicle/camptothecin viability -0.453.
For TCP11L2 #3, the values are log2 vehicle/camptothecin viability -0.236.
For TCP11L2 #4 the deposit lists log2 vehicle/camptothecin viability -0.309.
Knock-down of STX10 #1 resulted in: log2 vehicle/camptothecin viability -0.229.
Depletion of STX10 #2 gave: log2 vehicle/camptothecin viability -0.251.
For STX10 #3, the entry reads log2 vehicle/camptothecin viability 0.0387.
Depletion of STX10 #4 resulted in: log2 vehicle/camptothecin viability 0.108.
SHPK #1 scored log2 vehicle/camptothecin viability 0.053.
Silencing of SHPK #2 came out at: log2 vehicle/camptothecin viability 0.237.
SHPK #3 scored log2 vehicle/camptothecin viability 0.0832.
For SHPK #4 the deposit lists log2 vehicle/camptothecin viability -0.00501.
